Data taken from PubChem BioAssay (NCATS).
The inconclusive results got no clear call from the source; some entries with a clear call stand among them for comparison. A potency beside an inconclusive call is a rough fit, not a confirmed value. Calls of active or inactive are those of the source. Calls come from the whole dose curve; as a rule, active = well fitted activation curve with a large enough effect; inconclusive = small, poorly fitted or top-dose-only effect, or another doubt; inactive = no such curve, though single readings can be large or run the other way.
Potency is the fitted concentration of half-maximal effect.

What follows are compounds tested against Rap guanine nucleotide exchange factor 3 (Homo sapiens) (UniProt O95398) (assay: Counterscreen qHTS for agonist of cAMP-regulated guanine nucleotide exchange factor 3 (EPAC1) (AID 1645889; note: nearly all actives have a fitted effect of over 40% in size; for activation: % of control where 0% means no effect)). Conditions: EPAC1 Rap1B-BODIPY-GDP exchange, fluorescence; activation: at 154 µM (top of the series) unless noted.
How it was run: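 Measured: fluorescence of BODIPY-GDP bound to Rap1B, which falls as exchange proceeds. Conditions include 50 uM competing GDP, 5 and 30 min reads, and a later cAMP challenge for antagonist detection.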
For `C=CCN1C(=O)[C@@H]2Cc3c([nH]c4ccccc34)C(c3ccc(O)cc3)N2C1=S` (some centres undefined), the Potency was inconclusive: 11.2 µM [activator, partial curve, poor fit].
With `CCc1nc(Oc2cccc(F)c2)c2oc3ccccc3c2n1` the activation was inconclusive: 34.4% [activator].
With `O=C(N/N=C/c1coc2ccc(Cl)cc2c1=O)c1cc(O)cc(O)c1` the Potency was inconclusive: 20 µM [activator, partial curve, poor fit].
`COc1ccc(C2=NN(c3ccccc3)C(c3cn(CCC(=O)O)nc3-c3ccccc3)C2)cc1` (centres undefined) was tested, and the “activation” value was inactive: 13.1%.
`CCOc1ccc(C(=O)N/N=C/c2cc(Cl)ccc2[N+](=O)[O-])cc1` was tested, and the activation was inactive: 15.5% [at 30.8 µM].
In the case of `COc1cc(/C=N/NC(=O)c2ccc3c(c2)OCCO3)cc(Br)c1O`, the “activation” value is reported as inactive: 20.3%.
`O=C1C=C(NS(=O)(=O)c2ccccc2)C(=O)c2ccccc21` was tested, and the activation was inconclusive: 44.8% [activator].
With `Cc1ccc(C)c(Cn2nc(-c3cc(C)ccc3C)ccc2=O)c1` the “activation” value was inactive: 8.52%.
With `CCn1nc([N+](=O)[O-])c(C(C#N)c2nc3cc(C(F)(F)F)ccc3s2)c(Cl)c1=O` (centres undefined) the Potency was inconclusive: 0.0501 µM [activator, full curve, poor fit].
